Some of the results follow.
What follows are compounds tested on T1, CTL2-GFP (C. trachomatis L2/434/Bu, GFP-expressing). Conditions: bulk GFP, single well; 28.5 h, 10 µM; inhibitor.
T1 construct: L2/434/Bu, GFP-expressing
Set-up: species or system HeLa; Intracellular C. trachomatis growth in HeLa cells, bulk GFP fluorescence relative to DMSO

| Compound | % of control remaining [%] |
| --- | --- |
| Cc1ccc(OCC(=O)O/N=C(\N)c2ccccn2)cc1C [CBK264755] | 131.274 |
| CCOc1cc(/C=C2\SC(=S)N(Cc3cccnc3)C2=O)ccc1OCc1cccc(F)c1 [CBK264615] | 90.7109 |
| COc1ncccc1CNC(=O)Nc1cccn(CC(F)(F)F)c1=O [CBK305216] | 85.8906 |
| Cc1nn(C(C)CC(=O)N2CCCC(CN(C)C)C2)c(C)c1Cl (stereo not drawn) [CBK282137] | 122.856 |
| COc1ccc(/C=N/NS(C)(=O)=O)cc1 [CBK261981] | 110.755 |
| COc1ccc(C(C)NC(=O)c2cc(-c3ccc(F)cc3)[nH]n2)cc1 (stereo not drawn) [CBK288060] | 133.848 |
| CC(C)C(=O)Nc1cc2ccccc2c(-c2ccc(OCc3ccccc3)c(F)c2)n1 [CBK073783] | 105.638 |
| Cc1ccc2[nH]c3nc(N/N=C/c4ccc(-c5cccc([N+](=O)[O-])c5)o4)nnc3c2c1 [CBK262365] | 109.669 |
| O=C(c1c(NS(=O)(=O)c2cccc3cccnc23)sc2c1CCCC2)N1CCOCC1 [CBK028655] | 107.067 |
| CCn1cc(S(=O)(=O)NCC2(c3ccccc3)CCCC2)cn1 [CBK282768] | 138.606 |
| CC(C)Oc1ncccc1OCCO [CBK001465] | 101.395 |
| COc1ccccc1N1CCN(C(=O)NCCC(C)C)CC1 [CBK155611] | 91.8584 |
| CC(=O)c1cc2c(cc1NC(=O)CSc1nc3ccccc3[nH]1)OCO2 [CBK266110] | 79.9162 |
| COC(=O)c1ccc(Cl)c(NC(=O)CSc2nnc(-c3ccncc3)[nH]2)c1 [CBK268702] | 163.215 |
| CCOC(=O)c1cnc(SCCc2ccccc2)nc1N [CBK085871] | 99.5073 |
| CCNc1cc(-c2cncc(OC)c2)ncn1 [CBK090881] | 145.017 |
| NC(=O)N/N=C/c1ccncc1 [CBK260922] | 111.489 |
| N#CC1=C(N)n2c(s/c(=C\c3ccc(O)cc3)c2=O)=C(C#N)C1c1ccc(O)cc1 (stereo not drawn) [CBK217780] | 100 |
| Cc1cc(C(C)(C)C)cc(S(=O)(=O)Nc2ccc(O)c(C(=O)O)c2)c1C [CBK266196] | 216.587 |
| CC(=O)N1CCC2(CCCC[C@H]3CN(C(=O)CCC(C)C)CC[C@@H]3NC(=O)CNC2=O)CC1 [CBK292124] | 107.993 |
| Cc1oc(C(C)(C)C)cc1C(=O)NCCNc1c(Cl)cccc1[N+](=O)[O-] [CBK265032] | 110.393 |
| CCCCNC(=S)N1CC[C@@H]2CN(C)C[C@]2(c2ccc(OC)c(OC)c2)C1 [CBK075101T] | 109.275 |
| c1ccc2c(c1)OCC(COc1nccnc1OC1CCNCC1)O2 (stereo not drawn) [CBK070766T] | 189.022 |
| NC1CCN(C(=O)Cn2c3ccccc3c(=O)c3ccccc32)C1 (stereo not drawn) [CBK304300C] | 92.2967 |
| COc1cc(Nc2nc(-c3c(OC)cccc3OC)cn3ccnc23)cc(OC)c1OC [CBK037395] | 97.7388 |
| CC(NC(=O)c1cccc(Oc2ccccc2)c1)c1ccncc1 (stereo not drawn) [CBK270327] | 119.948 |

| Compound | % of control remaining [%] |
| --- | --- |
| Cc1ccc(C(NC(=O)Cn2ccnc2)c2ccncc2)cc1C (stereo not drawn) [CBK281591] | 118.8 |
| O=C(CCc1cc(F)ccc1F)NCCCn1nc2n(c1=O)CCCC2 [CBK305782] | 132.885 |
| Cc1nnc(SCC(=O)NNC(=O)c2cccs2)[nH]1 [CBK266879] | 153.911 |
| CC(C)Nc1cc(SCc2ccc(Cl)c(Cl)c2)ncn1 [CBK103665] | 99.3911 |
| CCOc1c(Br)cc(CNc2nc[nH]n2)cc1OC [CBK268009] | 106.143 |
| c1ccc(-c2ccccc2CN2CCN(c3nccnc3OCCN3CCOCC3)CC2)cc1 [CBK082893T] | 118.212 |
| O=C(O)CNC(=O)CCS(=O)(=O)c1ccc(F)cc1 [CBK286580] | 133.292 |
| CCn1c(SCc2nc(-c3ccc(Br)cc3)no2)nnc1-c1c[nH]c2ccccc12 [CBK268668] | 161.196 |
| Cc1ccc(S(=O)(=O)Nc2sccc2C(=O)N2CCN(C)CC2)cc1 [CBK042264] | 135.665 |
| Cc1ccc2[nH]c(-c3cccc(NC(=O)c4cccc(CN5CCCC5=O)c4)c3)nc2c1 [CBK285838] | 41.1916 |
| Cc1cc(C)cc(C(O)CNC2CCN(Cc3cscn3)CC2)c1 (stereo not drawn) [CBK304457] | 152.578 |
| COc1cc2c3c(cccc3c1)CC(C)(N(C)C)C2 (stereo not drawn) [CBK024357C] | 119.53 |
| CCCNC(=O)Cn1c(=O)n(Cc2cccs2)c2ncccc21 [CBK283843] | 102.205 |
| O=C(NC1CCNC1)c1cccc(S(=O)(=O)NCc2ccsc2)c1 (stereo not drawn) [CBK306706] | 108.781 |
| Cc1cc(C(=O)N2CCN(c3ncccn3)CC2)n[nH]1 [CBK144526] | 126.014 |
| NS(=O)(=O)c1ccccc1Sc1ccccc1 [CBK020524] | 112.081 |
| Cc1nc(N)c(CNC2CCCCC2)c(O)n1 [CBK019809] | 105.806 |
| NS(=O)(=O)c1ccc(Cl)c(Cl)c1 [CBK015652] | 120.838 |
| CCCn1c(=O)c(Cc2ccccc2)c(O)c2ccccc21 [CBK291175] | 133.867 |
| Cn1cc(-c2ccccc2CN2CCCC2)c2onc(-c3ccccc3)c2c1=O [CBK036319C] | 125.65 |
| O=C(NC1CC1)c1nn(-c2ncccn2)c2ccccc12 [CBK048508] | 100 |
| CC(C)C(NC(=O)C(C)(C)Oc1ccc(Cl)cc1)C(=O)O (stereo not drawn) [CBK266138] | 150.252 |
| CN(C)c1cccc(Nc2ccc(-c3ccc(CCC(=O)O)cc3)cn2)c1 [CBK036918] | 184.619 |
| N#CCCn1cc(C(=O)N2CCOCC2)c(-c2cc3ccccc3o2)n1 [CBK306203] | 96.1981 |
| COc1cc(-c2ccc(C(=O)N(C)CCN(C)C)c(N(C)C)n2)cc(OC)c1OC [CBK106076] | 103 |

Laid out differently: two of the compounds above
Compound	% of control remaining [%]
Cc1nnc(SCC(=O)NNC(=O)c2cccs2)[nH]1 [CBK266879]	153.911
CC(C)Nc1cc(SCc2ccc(Cl)c(Cl)c2)ncn1 [CBK103665]	99.3911
